Data on 29 molecules can be found in US7544661 (NORTHWESTERN UNIVERSITY, dated 2009).

Protein sequences, listed by entry. Tags and fused reporters are not part of them. Lines headed by an entry give the natural chain unless they say otherwise; changes in a name come on top. Chains listed by the source or under a name are the forms on record and can include a tag or linker. Residues count along the entry.
vascular endothelial growth factor (P15692, form named): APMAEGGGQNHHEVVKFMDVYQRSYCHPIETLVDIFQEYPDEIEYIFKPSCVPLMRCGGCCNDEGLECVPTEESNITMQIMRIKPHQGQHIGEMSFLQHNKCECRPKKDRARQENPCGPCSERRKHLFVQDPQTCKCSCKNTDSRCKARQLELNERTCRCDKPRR
UniProt P09038, residues 135-288: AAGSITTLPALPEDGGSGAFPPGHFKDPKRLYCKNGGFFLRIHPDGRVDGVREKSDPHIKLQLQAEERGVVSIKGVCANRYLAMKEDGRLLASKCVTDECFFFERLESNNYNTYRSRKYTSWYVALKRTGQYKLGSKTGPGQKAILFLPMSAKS

Results are given in words; binding and its absence hold for the method and conditions named. Some entries that bind do so weakly or less than the wild type.

One assay has as its target T1, neurotrophin-3 (UniProt P20783).
T1 sequence (looked up): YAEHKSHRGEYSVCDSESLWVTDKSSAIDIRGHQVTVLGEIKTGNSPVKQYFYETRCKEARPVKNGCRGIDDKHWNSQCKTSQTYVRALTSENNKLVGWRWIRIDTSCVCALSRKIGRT
Description: phage display; listed as binding sequence for NT-3.

For assay [1], the target named is vascular endothelial growth factor (UniProt P15692). The experiment in a line: phage display, 7-mer kit; listed as binding sequence for VEGF.
Assay [2] shares this target. Description: phage display, 12-mer kit; listed as binding sequence for VEGF.
Assay [3] shares this target. Description: phage display, 12-mer kit; listed as binding sequence for VEGF; * denotes the strongest binders.
Assay [4] has as its target basic fibroblast growth factor (UniProt P09038). Description: phage display; listed as binding sequence for FGF-2.

B1: EARQSYS (peptide)
peptide: EARQSYS
On to B1, for which, in the assay with neurotrophin-3, the binding result is reported as “binds”.

B2: WHWSLNH (peptide)
peptide: WHWSLNH
In the case of B2, the binding entry in assay [1] was “binds”.

B3: … (peptide)
peptide: LPQKNTIQYEKM
Turning to B3, the binding result in assay [2] is “binds”.

B4: THAFRVM (peptide)
peptide: THAFRVM
For B4, in assay [1], the binding result was “binds”.

B5: … (peptide)
peptide: PLTPSALLPIFE
With B5, the binding entry in assay [3] was “binds”.

B6: FTEPLAS (peptide)
peptide: FTEPLAS
Turning to B6, the binding entry in assay [1] is reported as “binds”.

B7: LPYPHYH (peptide)
peptide: LPYPHYH
For B7, in assay [1], the binding entry is on record as “binds”.

B8: RMTQVPL (peptide)
peptide: RMTQVPL
B8: the binding entry in assay [4] is listed as “binds”.

B9: SWWAPFH (peptide)
peptide: SWWAPFH
As for B9, the binding entry in assay [1] was “binds”.

B10: VVLYLPL (peptide)
peptide: VVLYLPL
On to B10, for which the binding result in the assay with neurotrophin-3 is listed as “binds”.

B11: DFIQPYQ (peptide)
peptide: DFIQPYQ
For the molecule B11, in assay [4], the binding entry is given as “binds”.

B12: DEPQKAH (peptide)
peptide: DEPQKAH
As to B12, the binding entry with neurotrophin-3 was “binds”.

B13: AQVRSGD (peptide)
peptide: AQVRSGD
As for B13, the binding entry in assay [4] is reported as “binds”.

B14: LSTPPLR (peptide)
peptide: LSTPPLR
With B14, the binding entry in assay [4] is recorded as “binds”.

B15: WPTWVNN (peptide)
peptide: WPTWVNN
On to B15, for which the binding result in assay [1] was “binds”.

B16: HSRHFHH (peptide)
peptide: HSRHFHH
Take B16: in assay [4], the binding entry is given as “binds”.

B17: PMHHHKH (peptide)
peptide: PMHHHKH
For B17, the binding entry in assay [4] is on record as “binds”.

B18: TLGLGLH (peptide)
peptide: TLGLGLH
On to B18, for which the binding entry in the assay with neurotrophin-3 is listed as “binds”.

B19: SYFPSSA (peptide)
peptide: SYFPSSA
For the molecule B19, the binding entry in the assay with neurotrophin-3 was “binds”.

B20: AMPQRPL (peptide)
peptide: AMPQRPL
Turning to B20, the binding entry in assay [4] is recorded as “binds”.

B21: ASLFSSN (peptide)
peptide: ASLFSSN
As for B21, the binding entry in assay [1] was “binds”.

B22: AMLSHLS (peptide)
peptide: AMLSHLS
Consider B22, for which the binding entry in assay [4] is on record as “binds”.

B23: YYTVHHM (peptide)
peptide: YYTVHHM
For B23, the binding entry in assay [1] was “binds”.

B24: YMRRSLS (peptide)
peptide: YMRRSLS
As to B24, the binding entry with neurotrophin-3 is recorded as “binds”.

B25: KHPPTNW (peptide)
peptide: KHPPTNW
B25: the binding entry in assay [4] was “binds”.

B26: HTTEILH (peptide)
peptide: HTTEILH
Take B26: the binding entry with neurotrophin-3 is listed as “binds”.

B27: LLTVSSY (peptide)
peptide: LLTVSSY
In the case of B27, the binding result in assay [1] is “binds”.

B28: … (peptide)
peptide: VSILSTIPNSMT
With B28, the binding result in assay [3] is “binds”.

B29: VYWSRIE (peptide)
peptide: VYWSRIE
B29: the binding entry in assay [4] is “binds”.
